According to article PMC5325327:
These are yes or no findings as the source states them, for the method shown. In cells and extracts the contact can be indirect. Here binding means that the protein was enriched with, or labelled near, the bait; the list need not be complete. Sequences can lack the tags named with a protein.

T1: Spo0M-FLAG (B. subtilis) (UniProt P71088)
T1 sequence: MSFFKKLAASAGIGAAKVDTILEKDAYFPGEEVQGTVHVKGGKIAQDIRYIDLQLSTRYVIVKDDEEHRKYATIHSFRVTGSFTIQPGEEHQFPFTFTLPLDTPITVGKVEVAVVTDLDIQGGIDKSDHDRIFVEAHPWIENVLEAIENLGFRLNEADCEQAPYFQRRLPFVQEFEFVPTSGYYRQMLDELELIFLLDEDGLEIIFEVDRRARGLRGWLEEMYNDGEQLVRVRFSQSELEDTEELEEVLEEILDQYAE

B1: DivIVA (protein, UniProt P71021 1-164)
chain: MPLTPNDIHNKTFTKSFRGYDEDEVNEFLAQVRKDYEIVLRKKTELEAKVNELDERIGHFANIEETLNKSILVAQEAAEDVKRNSQKEAKLIVREAEKNADRIINESLSKSRKIAMEIEELKKQSKVFRTRFQMLIEAQLDLLKNDDWDHLLEYEVDAVFEEKE
B2: EzrA (protein, UniProt O34894 1-562)
chain: MEFVIGLLIVLLALFAAGYFFRKKIYAEIDRLESWKIEILNRSIVEEMSKIKHLKMTGQTEEFFEKWREEWDEIVTAHMPKVEELLYDAEENADKYRFKKANQVLVHIDDLLTAAESSIEKILREISDLVTSEEKSREEIEQVRERYSKSRKNLLAYSHLYGELYDSLEKDLDEIWSGIKQFEEETEGGNYITARKVLLEQDRNLERLQSYIDDVPKLLADCKQTVPGQIAKLKDGYGEMKEKGYKLEHIQLDKELENLSNQLKRAEHVLMTELDIDEASAILQLIDENIQSVYQQLEGEVEAGQSVLSKMPELIIAYDKLKEEKEHTKAETELVKESYRLTAGELGKQQAFEKRLDEIGKLLSSVKDKLDAEHVAYSLLVEEVASIEKQIEEVKKEHAEYRENLQALRKEELQARETLSNLKKTISETARLLKTSNIPGIPSHIQEMLENAHHHIQETVNQLNELPLNMEEAGAHLKQAEDIVNRASRESEELVEQVILIEKIIQFGNRFRSQNHILSEQLKEAERRFYAFDYDDSYEIAAAAVEKAAPGAVEKIKADISA
B3: FtsA (protein, UniProt P28264 1-440)
chain: MNNNELYVSLDIGTSNTKVIVGEMTDDSLNIIGVGNVPSEGLKKGSIVDIDETVHSIRKAFDQAERMVGFPLRKAIVGVNGNYINIQDTNGVVAVSSENKEIQVEDVRRVMEAAQVVSVPHEQLIVDVIPKQFIVDGRDEITDPKKMLGVRLEVEGTLITGSKTILHNLLRCVERAGIEITDICLQPLAAGSAALSKDEKNLGVALIDIGGGSTTIAVFQNGHLTSTRVIPLGGENITKDISIGLRTSTEEAERVKKQLGHAYYDEASEDEIFEVTVIGTNQKQTFTQQEAANIIEARVEEILEIVSEELRSMGITDLPGGFVLTGGQAAMPGVMSLAQDVLQNNVRVASPNYIGVRDPQYMTGVGLIQFACRNARIQGRKIGFKMPEEAIQEIAVSSSEEQEQHHHQNEVQQRPKGKQKTQAEHNKQSKMKKLLSMFWE
B4: SepF (protein, UniProt O31728 1-151)
chain: MSMKNKLKNFFSMEDEEYEYEYIETERESHEEHEQKEKPAYNGNKPAGKQNVVSLQSVQKSSKVVLSEPRVYAEAQEIADHLKNRRAVVVNLQRIQHDQAKRIVDFLSGTVYAIGGDIQRIGSDIFLCTPDNVDVSGTISELISEDEHQRW
B5: FloA (protein, UniProt P54466 1-331)
chain: MDPSTLMILAIVAVAIIVLAVFFTFVPVMLWISALAAGVKISIFTLVGMRLRRVIPNRVVNPLIKAHKAGLNVGTNQLESHYLAGGNVDRVVNALIAAQRANIELTFERCAAIDLAGRDVLEAVQMSVNPKVIETPFIAGVAMDGIEVKAKARITVRANIERLVGGAGEETIVARVGEGIVSTIGSSDNHKKVLENPDMISQTVLGKGLDSGTAFEILSIDIADVDIGKNIGAILQTDQAEADKNIAQAKAEERRAMAVAQEQEMRARVEEMRAKVVEAEAEVPLAMAEALREGNIGVMDYMNIKNIDADTEMRDSFGKLTKDPSDEDRKS
B6: PBP1 (enzyme, UniProt P39793 1-914)
chain: MSDQFNSREARRKANSKSSPSPKKGKKRKKGGLFKKTLFTLLILFVLGVVGGAVTFAVMVSDAPSLDESKLKTPYSSTIYDKNGKEIAEVGAEKRTYVSIDEIPDVVKEAFIATEDARFYEHHGIDPVRIGGALVANFKDGFGAEGGSTITQQVVKNSLLSHQKTLKRKVQEVWLSIQLERNYSKDEILEMYLNRIYFSPRAYGIGKAAEEFFGVTDLSKLTVEQAATLAGMPQSPTAYNPVKNPDKAEKRRNIVLSLMKKQGFISDSQYNKAKKVAVKDEGVVSQKEYEKASTNKYSAFVEEVMKEIDEKSDVDPSADGLKIYTTLDTKAQDKLDELMDGDTVGFTEGMQGGVTLLDTKNGEVRAIGAGRNQPVGGFNYATQTKAQPGSTIKPILDYGPVIENKKWSTYEQIDDSAYTYSNGKPIRDWDRKYLGPISMRYALAQSRNIPALKAFQAVGKDTAVDFANGLGLGLTKDNVTEAYSIGGFGGNDGVSPLTMAGAYSAFGNNGTYNEPHFVKSIEFNDGTKLDLTPKSKSAMSDYTAFMITDMLKTAVKTGTGQLAQVPGVEVAGKTGTTNFDDNEVKRYNIASGGARDSWFVGYTPQYTAAVWTGMGENEAGKKSLSAEEQKVAKRIFAQLIADVDDGSGSFEKPDSVVEATVEKGSNPAKLAGPNTPSDKKLTEYFVKGTAPSTVSKTYEKEEKEETAKLSGLNVKYDKDNQSLTLSWNYDGDATFAVKQSVDGGSYSEIQNSSAKEAVISGVQPGSVYKFEVTAVSDDGKSTASTSYEVPKAEDDEDKKDQQQTDDEKQDDEKTQDDTQTDDSQKDDGQTDQDQTDDSTNDQDKKQDNTNTNPSDNNNQDQSNDNDNDNSNNQDTSDGDSNSGKNDSTGSDTNKNKTDTSNKTQTNSSSIEKTN
B7: PBP3 (enzyme, UniProt P42971 1-668)
chain: MLKKCILLVFLCVGLIGLIGCSKTDSPEDRMEAFVKQWNDQQFDDMYQSLTKDVKKEISKKDFVNRYKAIYEQAGVKNLKVTAGEVDKDDQDNKTMKHIPYKVSMNTNAGKVSFKNTAVLKLEKTDDEESWNIDWDPSFIFKQLADDKTVQIMSIEPKRGQIYDKNGKGLAVNTDVPEIGIVPGELGDKKEKVIKELAKKLDLTEDDIKKKLDQGWVKDDSFVPLKKVKPDQEKLVSEATSLQGVTRTNVSSRYYPYGEKTAHLTGYVRAITAEELKKKKEGTYSDTSNIGIAGLENVYEDKLRGTTGWKIYVPQTGEVIAEKKAKDGEDLHLTIDIKTQMKLYDELKDDSGAAVALQPKTGETLALVSAPSYDPNGFIFGWSDKEWKKLNKDKNNPFSAKFNKTYAPGSTIKPIAAAIGIKNGTLKADEKKTIKGKEWQKDSSWGGYSVTRVSERLQQVDLENALITSDNIYFAQNALDMGADTFTKGLKTFGFSEDVPYEFPIQKSSIANDKLDSDILLADTGYGQGQMQMSPLHLATAYTPFVDNGDLVKPTLIKKDSQTADVWHKQVVTKEGAADITKGLKGVVEDERGSAYQPVVKGITVAGKTGTAELKTSKDDKDGTENGWFVGYDYENKDLLVAMMIQNVQDRGGSHYVVEKAKKQFQSN
B8: FtsE (protein, UniProt O34814 1-228)
chain: MIEMKEVYKAYPNGVKALNGISVTIHPGEFVYVVGPSGAGKSTFIKMIYREEKPTKGQILINHKDLATIKEKEIPFVRRKIGVVFQDFKLLPKLTVFENVAFALEVIGEQPSVIKKRVLEVLDLVQLKHKARQFPDQLSGGEQQRVSIARSIVNNPDVVIADEPTGNLDPDTSWEVMKTLEEINNRGTTVVMATHNKEIVNTMKKRVIAIEDGIIVRDESRGEYGSYD
B9: PepF (enzyme, UniProt O31605 1-670)
chain: MKGTKGKVFRVFTAFLAFVLFITAYDLTKGSEKPEDIHNTSLLRNSCFFNWLESKKTRGITMAEEKKANQLPDRSEVKAEDTWRLEDIFPSDEAWNKEFQAVKELIPNLSKYKGKLADSADHLYEALTYQDKVMERLGRLYTYAHMRSDQDTGNSFYQGLNDKAGNLYTQAASATAYLVPEILSIEEDKLQQFILEKEELKLYSHAIEEITKERPHVLSEKEEALLAEASEVLGSSSNTFSVLNNADITFPSIKDEDGNEKQITHGNFINFLESENREVRKNAFDAVYKTYGQYKNTMATTLSGTVKKDNFYARVKKYKSAREAALSNNSIPEEVYDNLVKTINKHLPLLHRYIALRKKVLELDEVHIYDLYTPLVKDAGMKVTYEEAKDYMLKGLAPLGEEYASILKEGLENRWVDVYENKGKRNGAYSSGAYGTNPYILMNWHNNVNNLFTLVHEFGHSVHSYYTRKHQPYPYGNYSIFVAEVASTTNEALLGEYLLNNLEDEKQRLYILNHMLEGFRGTVFRQTMFAEFEHLIHTKAQEGEPLTPELLTNVYYDLNKKYFGDGMVIDKEIGLEWSRIPHFYYNYYVYQYATGYSAAQALSSQILKEGKPAVDRYIDFLKAGSSQYPIDVLKKAGVDMTSPEPIEAACKMFEEKLDEMEELLMKVKQS
B10: trigger factor (protein, UniProt P80698 1-424)
chain: MSVKWEKQEGNEGVLTVEVDAETFKTALDDAFKKVVKQVSIPGFRKGKIPRGLFEQRFGVEALYQDALDILLPVEYPKAVEEAGIEPVDRPEIDVEKIEKGESLIFTAKVTVKPEVKLGEYKGLGIEKDDTTVTDEDVQNELKALQERQAELVVKEEGAVEEGNTVVLDFEGFVDGEAFEGGKAENYSLEVGSGSFIPGFEDQLVGLEAGAEKDVEVTFPEEYHAEDLAGKPAVFKVKIHEIKAKELPELDDEFAKDIDEEVETLAELTEKTKKRLEEAKENEADAKLREELVLKASENAEIDVPQAMVDTELDRMLKEFEQRLQMQGMNLELYTQFSGQDEAALKEQMKEDAEKRVKSNLTLEAIAKAENLEVSDEEVDAELTKMAEAYNMPVENIKQAIGSTDAMKEDLKVRKAIDFLVENR
B11: Spo0A (protein, UniProt P06534 1-267)
chain: MEKIKVCVADDNRELVSLLSEYIEGQEDMEVIGVAYNGQECLSLFKEKDPDVLVLDIIMPHLDGLAVLERLRESDLKKQPNVIMLTAFGQEDVTKKAVDLGASYFILKPFDMENLVGHIRQVSGNASSVTHRAPSSQSSIIRSSQPEPKKKNLDASITSIIHEIGVPAHIKGYLYLREAISMVYNDIELLGSITKVLYPDIAKKFNTTASRVERAIRHAIEVAWSRGNIDSISSLFGYTVSMTKAKPTNSEFIAMVADKLRLEHKAS

The molecules below were run against T1, Spo0M-FLAG (B. subtilis) (assay: affinity purification with mass spectrometry; E. coli BL21-DE3 extract with Spo0M-FLAG mixed with B. subtilis Bs1A1 total protein extract 2 h at 4°C, then anti-FLAG agarose beads 2 h at 4°C; lysis buffer 50 mM HEPES pH 7.4, 2.5 mM EDTA, 150 mM NaCl, 10% glycerol, 1% NP40; bands differing from the empty-vector control cut from the SDS-PAGE gel for mass spectrometry; three biological replicates).

Row | Molecule | binding
1 | FtsZ (from UniProt P17865 1-382) | binds
2 | Hrp kinase (B. subtilis (endogenous in Bs1A1)) (enzyme) | binds
3 | Clp-P (from UniProt P80244 1-197) (enzyme) | binds
4 | DnaK (from UniProt P17820 1-611) | binds
5 | FtsH metalloprotease (from UniProt P37476 1-637) (enzyme) | binds
6 | GroEL (from UniProt P28598 1-544) | binds
7 | ClpC (from UniProt P37571 1-810) | binds
8 | PBP4 (from UniProt P40750) (enzyme) | binds

Molecular target: T1, Spo0M-FLAG (B. subtilis)
Test: as above
Remark: another data set of the same source

Row | Molecule | binding
9 | B1 | binds
10 | B2 | binds
11 | B3 | binds
12 | B4 | binds
13 | B5 | binds
14 | B6 | binds
15 | B7 | binds
16 | B8 | binds
17 | B9 | binds
18 | B10 | binds
19 | B11 | binds
